Patent US20230141533A1, “LACTONE COMPOUND” (FUJIFILM Corporation, priority 2021, published 2023)
At least one compound was matched to its structure with a doubt left.

How the values were obtained:
[1] = Water stability under applied voltage (square wave voltammetry, oxidation potential); assay type: physicochemical; details: SWV, 0.5 mM in THF:water=90:10, gold electrode, Ag wire reference, ferrocene reference substance; None = no oxidation potential, more stable than 1.3 V (THF oxidized)
Procedure: Water Stability Under Applied Voltage
Water stability against voltage of each of the compounds (1) to (9) synthesized in Examples and Comparative Examples was evaluated by the measurement shown below.
Measurement: square wave voltammetry (SWV)
Action electrode: gold electrode
Counter electrode: platinum black electrode
Reference electrode: Ag wire
Supporting electrolyte: tetrabutylammonium hexafluorophosphate (manufactured by FUJIFILM Wako Pure Chemical Corporation)
Reference substance: ferrocene
The compound (1) was adjusted to a concentration of 0.5 mM using a mixed solvent of THF:water=90:10, and nitrogen bubbling was carried out for 10 minutes to produce a measurement sample.
Next, a measurement was performed under the above-described analysis conditions to observe an oxidation potential.
Oxidation potentials of the compounds (2) to (9) were measured under the same conditions.

[2] = Water stability over time without applied voltage (HPLC residual rate); assay type: physicochemical; details: aqueous mixed solution with NIKKOL HCO-40, allowed to stand at 25° C. for 24 hours; HPLC area after 24 hours ÷ area immediately after preparation × 100
Procedure: Water Stability Over Time without Applied Voltage
To 1.0 part by mass of each of the compounds (1) to (9) synthesized in Examples and Comparative Examples, 1000 parts by mass of NIKKOL HCO-40 (Nikko Chemicals Co., Ltd.) and 10000 parts by mass of acetone were mixed.
Next, after removing the acetone using an evaporator at a temperature of 40° C., 10000 parts of water was added thereto to prepare a uniform mixed solution 1. The mixed solution 1 was allowed to stand at 25° C. for 24 hours.
Immediately after the preparation of the mixed solution 1 and after allowing the mixed solution 1 to stand for 24 hours, an HPLC measurement was carried out under the following analysis conditions, and a residual rate in the water stability test over time was calculated using the following expression.
(Area value after standing for 24 hours)÷(Area value immediately after preparation)×100=Residual rate (%)
SCL-10AVP manufactured by Shimadzu Corporation
Eluent: single eluent prepared by adding 0.2% by volume of each of acetic acid and triethylamine to a mixed solution obtained by mixing tetrahydrofuran (THF) and water at a ratio of 60:40

For `CC(C)(C)c1cc(C2C(=O)Oc3c2cc(C(C)(C)C)cc3C(C)(C)C)c(O)c(C(C)(C)C)c1` (centres unmarked) [Compound (9)], the Oxidation potential [1] was 1.14 V and the “Residual rate (%)” value [2] was 0%.
